Source: article PMC8632968
For at least one entry, the source does not settle the construct or the ends of the probe. At least one verdict was read from the data and is not stated in words by the source. Where a protein sequence is shown, tags need not be part of it.

Experiments:
[1] = molecular target: T1, Ty3 integrase (Ty3 IN) (Saccharomyces cerevisiae) (UniProt Q99315); assay: SEC and native agarose gel (intasome assembly); settings: 10 mM MgCl2 at assembly start, 25 uM ZnCl2 dialysis, 200 mM NaCl; Sequential binding 30 min per step at RT, 1% agarose EMSA; intasome assembled in 20 mM HEPES pH 8, 730 mM NaCl, 10 mM MgCl2, 10 uM ZnCl2, 1 mM DTT; recombinant protein; protein details: N-terminal His-tag removed by 3C protease; label: Cy5 at 5' end of reactive strand (S3)
T1 sequence (looked up, limits assumed): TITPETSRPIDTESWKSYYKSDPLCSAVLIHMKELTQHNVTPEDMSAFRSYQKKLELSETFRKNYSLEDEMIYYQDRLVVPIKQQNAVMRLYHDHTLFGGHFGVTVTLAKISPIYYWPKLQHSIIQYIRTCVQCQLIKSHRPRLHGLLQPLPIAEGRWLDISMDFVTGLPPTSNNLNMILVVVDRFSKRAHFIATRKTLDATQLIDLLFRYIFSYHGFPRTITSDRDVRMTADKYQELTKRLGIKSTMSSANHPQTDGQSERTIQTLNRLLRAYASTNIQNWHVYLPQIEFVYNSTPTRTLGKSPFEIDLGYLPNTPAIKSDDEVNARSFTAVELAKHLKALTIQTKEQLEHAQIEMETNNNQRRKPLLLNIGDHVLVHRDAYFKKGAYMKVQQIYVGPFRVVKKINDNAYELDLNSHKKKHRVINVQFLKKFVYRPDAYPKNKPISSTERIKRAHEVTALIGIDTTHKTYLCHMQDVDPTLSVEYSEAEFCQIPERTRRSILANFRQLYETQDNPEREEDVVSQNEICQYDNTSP

[2] = molecular target: T1, Ty3 integrase (Ty3 IN) (Saccharomyces cerevisiae); assay: cryo-EM structure (4.0 A); settings: IN tetramer with two LTRs, joined to target N4, with TFIIIB (P3+P4); Sequential binding 30 min per step at RT, 1% agarose EMSA; intasome assembled in 20 mM HEPES pH 8, 730 mM NaCl, 10 mM MgCl2, 10 uM ZnCl2, 1 mM DTT; recombinant protein; protein details: N-terminal His-tag removed by 3C protease

GAGCCCGTAATACAACA / GGTGTTGTATTACGGGCTC [Ty3 LTR terminus, Cy5]
binding result [1]: binds

GAGCCCGTAATACAACA / GGTGTTGTATTACGGGCTC [Ty3 LTR terminus, unlabelled]
binding result [2]: binds
